Measured values: PMC3549253, “Effect of repetitive lysine–tryptophan motifs on the bactericidal activity of antimicrobial peptides” (Amino Acids, 2012)
Marks after values point to notes of the source that are not given here. Residues, ends and D or L forms follow the SMILES beside them. No end group written: not given here.

test system: all 16 microbial strains; conditions: MHC/GM; larger values indicate greater antimicrobial specificity
Description: The antibacterial activities of the peptides against Gram-negative, Gram-positive and antibiotic-resistant bacterial strains were evaluated using the microbroth dilution method (Park et al. [2003]). Aliquots of culture medium containing bacterial suspensions in mid-logarithmic phase at a concentration of 2 × 10^5 colony forming units (CFU)/ml were added to each well of a multiwell plate containing peptide solution serially diluted 2× in 10 mM sodium phosphate buffer (pH 7.2) or phosphate-buffered saline (PBS, 1.5 mM KH2PO4, 2.7 mM KCl, 8.1 mM Na2HPO4, 150 mM NaCl, pH 7.2). Growth inhibition was evaluated by measuring the absorbance at 620 nm using a Versa-Max microplate Elisa Reader (Molecular Devices Co., Sunnyvale, CA, USA) after 24 h of incubation at 37° C.

| Molecule | Therapeutic index |
| --- | --- |
| NCCCC[C@H](NC(=O)[C@H](Cc1c[nH]c2ccccc12)NC(=O)[C@@H](N)CCCCN)C(=O)N[C@@H](Cc1c[nH]c2ccccc12)C(N)=O [(KW)2, KWKW-NH2] (H-KWKW-NH2) | 1.4 |
| CC[C@H](C)[C@H](NC(=O)CN)C(=O)NCC(=O)N[C@@H](C)C(=O)N[C@H](C(=O)N[C@@H](CC(C)C)C(=O)N[C@@H](CCCCN)C(=O)N[C@H](C(=O)N[C@@H](CC(C)C)C(=O)N[C@H](C(=O)N[C@H](C(=O)NCC(=O)N[C@@H](CC(C)C)C(=O)N1CCC[C@H]1C(=O)N[C@@H](C)C(=O)N[C@@H](CC(C)C)C(=O)N[C@H](C(=O)N[C@@H](CO)C(=O)N[C@@H](Cc1c[nH]c2ccccc12)C(=O)N[C@H](C(=O)N[C@@H](CCCCN)C(=O)N[C@@H](CCCNC(=N)N)C(=O)N[C@@H](CCCCN)C(=O)N[C@@H](CCCNC(=N)N)C(=O)N[C@@H](CCC(N)=O)C(=O)N[C@@H](CCC(N)=O)C(N)=O)[C@@H](C)CC)[C@@H](C)CC)[C@@H](C)O)[C@@H](C)O)C(C)C)C(C)C [Melittin, reference compound] | 0.1 |
| KWKWKW-NH2 [(KW)3, KWKWKW-NH2] | 2.1 |
| KWKWKWKW-NH2 [(KW)4, KWKWKWKW-NH2] | 19.8 ^h |
| KWKWKWKWKW-NH2 [(KW)5, KWKWKWKWKW-NH2] | 4.5 |
